Data as given in patent US20160347831A1.
No constants are given. Whether binding was seen depends on the method and setting. Some binding calls cover weakened binding; strength is not graded here. One block for each binder: values may come before it.

Sequences of proteins named here, by UniProt entry; tags and fusion partners are left off. Residues count along the entry.
amyloid β in amyloid plaques (P05067, residues 672-713): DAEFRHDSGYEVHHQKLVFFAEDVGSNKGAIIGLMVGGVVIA
amyloid β in cerebral amyloid angiopathy (CAA) (P05067, residues 672-711): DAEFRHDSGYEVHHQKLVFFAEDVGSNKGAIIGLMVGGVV

Experiments:
[1] = target: amyloid β in amyloid plaques (UniProt P05067); experiment: IHC after intracarotid infusion in mice
[2] = target: amyloid β in amyloid plaques (UniProt P05067); experiment: immunohistochemistry on human AD brain sections
[3] = target: amyloid β in amyloid plaques (UniProt P05067); experiment: labeling (Table 1); cell shared by the rows R3VE and R3VQ
[4] = target: amyloid β in amyloid plaques (UniProt P05067); experiment: labeling (Table 1)
[5] = target: amyloid β in amyloid plaques (UniProt P05067); experiment: IHC after stereotaxic injection in TauPS2APP mice
[6] = target: amyloid β in amyloid plaques (UniProt P05067); experiment: IHC after intracarotid injection in mice
[7] = target: amyloid β in cerebral amyloid angiopathy (CAA) (UniProt P05067); experiment: labeling (Table 1)
[8] = target: amyloid β in amyloid plaques (UniProt P05067); experiment: IHC on B6.PS2APP mouse paraffin sections
[9] = target: amyloid β in amyloid plaques (UniProt P05067); experiment: IHC on B6 PS2APP mouse paraffin sections
[10] = target: amyloid β in amyloid plaques (UniProt P05067); experiment: IHC
[11] = target: amyloid β in amyloid plaques (UniProt P05067); experiment: ex vivo MRI after intravenous injection in PS2APP mice
[12] = target: amyloid β in amyloid plaques (UniProt P05067); experiment: in vitro MRI of PS2APP mouse brains incubated at 0.1 mg/ml
[13] = target: amyloid β in amyloid plaques (UniProt P05067); experiment: ex vivo MRI after iv injection, legend of FIG. 13
[14] = target: amyloid β in amyloid plaques (UniProt P05067); experiment: in vitro MRI, legend of FIG. 12
[15] = target: amyloid β in amyloid plaques (UniProt P05067); experiment: IHC after stereotaxic injection in mice
[16] = target: amyloid β in amyloid plaques (UniProt P05067); experiment: IHC and MRI after intracerebroventricular injection
[17] = target: amyloid β in amyloid plaques (UniProt P05067); experiment: IHC and ex vivo MRI after intracerebroventricular injection
[18] = target: amyloid β in amyloid plaques (UniProt P05067); experiment: IHC and MRI after soaking TauPS2APP mouse brains

binding [1]: binds
binding [2]: binds
binding [3]: binds
binding [4]: binds
binding [5]: binds
binding [6]: binds
B1: VHH R3VQ (VHH, not shown: small tags and cut ends)
VHH: EVQLQASGGGLVQTGDSLRLSCADSGSTFRNYNIGWFRQTPGQAREFVAAVSRTGISTHVADSLQGRFTISRDNAKNTVYLQMNSLKPEDTAVYSCAAGRPGVGAVNRAMDYDYWGQGTQVTVSS

binding [7]: binds
B2: VHH R3VE (VHH, not shown: small tags and cut ends)
VHH: EVQLEASGGGLVQTGDSLRLSCADSGSTFRNYNIGWFRQTPGQAREFVAAVSRTGISTHVADSLQGRFTISRDNAKNTVYLQMNSLKPEDTAVYSCAAGRPGVGAVNRAMDYDYWGQGTQVTVSS

binding [8]: binds
binding [9]: binds
B3: R3VQ-SH (VHH)
VHH: AVQLQASGGGLVQTGDSLRLSCADSGSTFRNYNIGWFRQTPGQAREFVAAVSRTGISTHVADSLQGRFTISRDNAKNTVYLQMNSLKPEDTAVYSCAAGRPGVGAVNRAMDYDYWGQGTQVTVGG

binding [10]: binds
binding [11]: binds
binding [12]: binds
binding [13]: binds
binding [14]: binds
B4: R3VQ-S-(DOTA/Gd)3 (VHH)
VHH: AVQLQASGGGLVQTGDSLRLSCADSGSTFRNYNIGWFRQTPGQAREFVAAVSRTGISTHVADSLQGRFTISRDNAKNTVYLQMNSLKPEDTAVYSCAAGRPGVGAVNRAMDYDYWGQGTQVTVGG
modifications: maleimido-(DOTA/Gd)3 compound 4 on the engineered C-terminal Cys (thio-addition)

binding [15]: binds
binding [16]: binds
binding [17]: binds
binding [18]: binds
B5: R3VQ-N-(DOTA/Gd)1-2 2e (VHH, not shown: small tags and cut ends)
VHH: EVQLQASGGGLVQTGDSLRLSCADSGSTFRNYNIGWFRQTPGQAREFVAAVSRTGISTHVADSLQGRFTISRDNAKNTVYLQMNSLKPEDTAVYSCAAGRPGVGAVNRAMDYDYWGQGTQVTVSS
modifications: DOTA/Gd randomly distributed on lysine residues; average Gd/protein (0) 1 2 (3)
